According to patent US9150840B2, “Isolated bacterial strain of Achromobacter sp. MTCC 5605 and a highly enantioselective epoxide hydrolase isolated therefrom” (COUNCIL OF SCIENTIFIC & INDUSTRIAL RESEARCH, priority 2011, dated 2015):

System: epoxide hydrolase from Achromobacter sp. MTCC 5605
Type: biochemical

SMILES | Diol product ee [%] | Enantiomeric ratio E | Residual epoxide ee [%] | ees (enantiomeric excess of the substrate), (S)-enantiomer [%]
c1ccc(C2CO2)cc1 (stereo not shown) [Styrene oxide] | 65 | 64.09 | >99 | > 99
C=C(C)[C@@H]1CCC2(C)OC2C1 (single isomer, unassigned; (+)) [(+) Limonene epoxide] | 32 |  | >90 | 
c1ccc(OCC2CO2)cc1 (stereo not shown) [Phenyl glycidyl ether] | 26 |  | >80 | 
c1ccc2c(c1)CC1OC21 (stereo not shown) [Indene oxide] |  |  | >92 | 
c1ccc(COCC2CO2)cc1 (stereo not shown) [Benzyl glycidyl ether] | 39 |  | >99 | 
COc1ccc(OCC2CO2)cc1 (stereo not shown) [4-Methoxy phenyl glycidyl ether] | 23 |  | >86 | 
